Data published in US9029078B2, “Perfusion and/or preservation solution for organs” (Philadelphia College of Osteopathic Medicine, priority 2005, dated 2015).
For at least one compound, name, drawing or mass did not settle the structure.

System: rat aortic endothelium
Assay: Measurement of NO release from rat aortic segments
Settings: for Endothelial NO release vs basal NO release (in words): concentrations as given at the place
Description: FIG. 5. Measurement of NO release from rat aortic segments. […] All values are expressed as means± SEM. Numbers at bottom of bars are numbers of separate experiments per group. *p<0.05, **p<0.01, from basal values. FIG. 10. Measurement of NO release from rat aortic segments. […] All values are expressed as means± SEM. Numbers at bottom of bars are numbers of separate experiments per group. *p<0.05, **p<0.01, from basal values. FIG. 17. Measurement of NO release from rat aortic segments. […] All values are expressed as means± SEM. Numbers at bottom of bars are numbers of separate experiments per group. **p<0.01, from basal values. PMN adherence to coronary vascular endothelium was also evaluated within the assessment of total intravascular and infiltrated PMNs. […] NO release from rat aortic endothelium was measured to determine if PKC ζ peptide inhibitor provides cardioprotection by a mechanism involving increased endothelial NO release. […] The eNOS inhibitor, L-NAME, was used as another control in order to decrease basal release of NO to zero.

CC(=O)OCC[N+](C)(C)C [Acetylcholine, reference compound]
Induced production of NO after treating the endothelium with L-NAME (L-NAME 400 μM): completely inhibited | Endothelial NO release vs basal NO release (in words): significantly increased NO release | Endothelial NO release vs basal NO release (in words) (listed as acetylcholine): significantly increased
